Laboratory results as given in publication PMC5461336, “Non-canonical Glucocorticoid Receptor Transactivation of gilz by Alcohol Suppresses Cell Inflammatory Response”.

Target: T1, Glucocorticoid receptor (Hu-GR), unliganded (human) (UniProt P04150)
T1 sequence (looked up, limits assumed): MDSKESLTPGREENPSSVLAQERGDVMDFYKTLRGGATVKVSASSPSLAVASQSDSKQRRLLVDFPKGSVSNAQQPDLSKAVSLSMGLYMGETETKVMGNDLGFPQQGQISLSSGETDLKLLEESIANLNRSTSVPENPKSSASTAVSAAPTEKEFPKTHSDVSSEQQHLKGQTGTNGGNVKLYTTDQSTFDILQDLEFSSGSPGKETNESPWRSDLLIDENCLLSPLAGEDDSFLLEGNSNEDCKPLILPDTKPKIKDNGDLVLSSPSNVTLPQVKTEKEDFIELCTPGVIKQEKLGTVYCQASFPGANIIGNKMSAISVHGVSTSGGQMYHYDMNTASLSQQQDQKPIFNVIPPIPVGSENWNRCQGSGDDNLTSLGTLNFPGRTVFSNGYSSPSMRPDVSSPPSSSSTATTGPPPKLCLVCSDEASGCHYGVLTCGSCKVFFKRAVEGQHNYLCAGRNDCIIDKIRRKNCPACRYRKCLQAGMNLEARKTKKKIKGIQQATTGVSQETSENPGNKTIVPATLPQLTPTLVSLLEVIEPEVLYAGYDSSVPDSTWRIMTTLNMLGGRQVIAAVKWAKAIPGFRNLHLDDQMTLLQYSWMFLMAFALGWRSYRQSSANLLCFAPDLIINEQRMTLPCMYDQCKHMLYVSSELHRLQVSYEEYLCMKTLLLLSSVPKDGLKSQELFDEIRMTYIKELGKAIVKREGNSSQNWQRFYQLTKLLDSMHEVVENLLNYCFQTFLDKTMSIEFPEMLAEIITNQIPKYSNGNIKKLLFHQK
Test: EMSA
Settings: 25, 50 or 100 mM ethanol, no glucocorticoid; GR 40 ng (0.5 pmol), probe 0.5 ng (0.05 pmol), 1 ug poly(dI-dC), 25 ul; 6% non-denaturing PAGE; pH and temperature not stated; recombinant protein; label: 32P 5'-end

CAAACTAGCGCTGTTCTTTACTGAATGCCC (double strand) [Wt-GRE1]
binding result: binds

GGTGGAACCCAATGTTCTCCTTTGGTCCTG (double strand) [Wt-GRE2]
binding result: binds

Construct, isoform or probe ends are uncertain for at least one entry. At least one verdict was read from the data and is not stated in words by the source. Tags and fusion partners may be left off the protein sequences shown.
